These results are taken from PubChem BioAssay AID1487 (National Center for Advancing Translational Sciences (NCATS), 2009).

This is one part of the list. Shown are side measurements of this screen, not its main read-out; they come without a call. Most of these compounds were active or inconclusive in the main read-out, so they are no random draw. Potencies come from curve fits of mixed quality, noted in brackets.

This assay in a line: qHTS Assay for Modulators of Lamin A Splicing. To be noted: HeLa LMNA splicing GFP/RFP minigene ratio, 48 h. In outline:
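S3 HeLa cells stably expressing lamin A-EGFP splicing minigene plus DsRed2, 600 cells/well, 48 h compound exposure at 37C. Laser-scanning cytometry; analysed as GFP (500-530 nm)/RFP (575-640 nm) total intensity ratio; 0.5% DMSO vehicle.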
A general note: Quantitative high-throughput screening tests each substance at several concentrations.

Setting [1] is: measured here: GFP splicing reporter channel.
Setting [2] is: measured here: RFP viability control channel.

With `CCOC(=O)c1ccc(N/C(=N\S(=O)(=O)c2ccccc2C)c2ccccc2)cc1`, the AC50 (in general, the midpoint of the concentration-response curve, whichever way the signal moves) by setting is: under setting [1], 17.8 µM [falling, single point]; under setting [2], 22.4 µM [falling, single point].
As for `COC(CN1C(=O)C(O)=C(C(C)=O)C1c1ccccn1)OC` (stereo unspecified), the AC50 under setting [2] was 5.62 µM [falling, single point].
For the compound `CCn1c(SCC(=O)c2ccc(O)c(O)c2)nnc1-c1ccc(C)cc1`, the AC50 runs as follows: under setting [1], 15.8 µM [rising, single point]; under setting [2], 31.6 µM [rising, single point].
In the case of `Cc1nc2cc3c(cc2c(C)c1C(=O)OC(C)C)OCO3`, under setting [2], the AC50 was 2.51 µM [rising, full curve, poor fit].
Still for that read-out and setting: under `Cc1cc(C(=O)CN2C(=O)NC3(CCCCC3)C2=O)c(C)n1-c1ccc2c(c1)OCO2` stands 35.5 µM [rising, single point].
Turning to `Cc1cccc(OCC(=O)Nc2ccc3nc(Nc4cccc(C(F)(F)F)c4)cc(C)c3c2)c1`, the half-maximal activity concentration (AC50) reads like this: under setting [1], 10 µM [falling, partial curve]; under setting [2], 12.6 µM [falling, partial curve].
As for `CCC(=O)N1C2=C(c3ccccc3[C@@H]1CC(=O)Nc1ccc3ccccc3c1)[C@@H]1C(=O)N(c3ccccc3)C(=O)[C@@H]1[C@H](C)C2`, under setting [1], the AC50 is 0.794 µM [rising, partial curve, poor fit].
Regarding `CC(C)(C)c1nc(SCC(=O)c2ccccc2)c2ccccc2n1`, the AC50 was 11.2 µM [rising, partial curve] under setting [1] and 22.4 µM [rising, single point] under setting [2].
Consider `COc1cc(Cl)c(C)cc1NC(=O)CN(C)Cc1cccc(OC)c1OC`, for which the AC50 by setting is: under setting [1], 20 µM [falling, partial curve, poor fit]; under setting [2], 28.2 µM [falling, single point].
Take `CCC(CC)c1nnc(NC(=O)c2cccnc2SC)s1`: the AC50 under setting [1] is 0.1 µM [falling, full curve, poor fit].
`CCn1c(SCC(=O)Nc2nc3c(s2)CCCC3)nnc1-c1ccccc1`: the half-maximal activity concentration (AC50) was 3.55 µM [rising, full curve] under setting [1] and 5.01 µM [rising, partial curve] under setting [2].
For the compound `CCOc1cc(C#N)c(NC(=O)c2cccnc2)cc1OCC`, the AC50 is, setting by setting: under setting [1], 7.08 µM [falling, full curve, poor fit]; under setting [2], 6.31 µM [falling, full curve, poor fit].
Turning to `Cc1nc(NC(=O)c2ccco2)sc1C(=O)Nc1ccc(Br)cc1`, the concentration at half-maximal activity (AC50) under setting [2] was 11.2 µM [falling, partial curve].
The same measure, in the same setting: under `CC(=O)N(CCC(Cc1ccccc1)c1ccc2c(c1)OCO2)Cc1ccccc1F` (stereo unspecified) stands 7.94 µM [rising, partial curve].
Same read-out and setting: then `Cc1ccccc1CN1C(=O)C(O)(CC(=O)c2ccccc2)c2cc(Cl)ccc21` (stereo unspecified), with 12.6 µM [falling, single point].
Still for that read-out and setting: under `Cc1c(NC(=O)C(C)n2cc([N+](=O)[O-])cn2)c(=O)n(-c2ccccc2)n1C` (stereo unspecified) stands 0.501 µM [falling, full curve]; under `Cc1ccc(F)cc1NC(=O)c1ccc(NS(=O)(=O)c2ccc(Br)s2)cc1`, 14.1 µM [rising, single point].
For `COC(=O)c1ccccc1NC(=O)CN1CCC(n2nnc3cc(C)ccc32)CC1`, the half-maximal activity concentration (AC50) under setting [1] is 2.82 µM [rising, single point].
Take `O=C(NCc1ccc2c(c1)OCO2)c1ccc(CS(=O)(=O)c2ccc(Br)cc2)o1`: under setting [2], the half-maximal activity concentration (AC50) is 35.5 µM [rising, single point].
Still for that read-out and setting: then `Cc1cc(N/N=C/c2ccc(O)cc2)nc(NS(=O)(=O)c2ccccc2)n1`, with 35.5 µM [rising, single point].
Take `CCOC(=O)c1c(S(=O)(=O)NCC(=O)N2CCN(c3cccc(Cl)c3)CC2)c(C)n(C)c1C`: the AC50 was 0.126 µM [falling, full curve, poor fit] under setting [1] and 0.158 µM [falling, full curve, poor fit] under setting [2].
Turning to `CCOC(=O)N1CCN(S(=O)(=O)c2ccc3c(c2)SC(C)C(=O)N3)CC1` (stereo unspecified), the AC50 is 1.78 µM [rising, partial curve, poor fit] under setting [1] and 5.62 µM [rising, partial curve] under setting [2].
As for `CSc1ncccc1C(=O)OCC(=O)c1cccc(Br)c1`, the half-maximal activity concentration (AC50) under setting [1] was 35.5 µM [falling, partial curve, poor fit].
`Brc1ccc([C@H]2CN3CCSC3=N2)cc1`: the AC50 is 5.01 µM [falling, partial curve, poor fit] under setting [1] and 5.62 µM [falling, partial curve, poor fit] under setting [2].
In the case of `CCn1c(COc2ccccc2C)nnc1SCC(=O)CC(=O)Nc1ccccc1`, under setting [2], the AC50 was 10 µM [rising, partial curve, poor fit].
Same read-out and setting: then `Nc1ccc(C2=Nc3cccc4cccc(c34)N2)cc1`, with 20 µM [rising, single point]; and `O=C(Nc1cc(S(=O)(=O)N2CCCCC2)ccc1O)c1ccccc1NS(=O)(=O)c1ccc(F)c(F)c1`, with 2 µM [rising, partial curve, poor fit].
As for `CC(=O)c1cccc(NC(=O)CSc2nnc3ccc(-c4ccc(F)cc4)nn23)c1`, the AC50 under setting [1] was 1 µM [rising, partial curve, poor fit].
For `N#Cc1ccccc1-c1ccc2ncnc(N3CCNCC3)c2c1`, the half-maximal activity concentration (AC50) is, setting by setting: under setting [1], 10 µM [rising, partial curve]; under setting [2], 14.1 µM [rising, single point].
`O=C(Nc1ccc(Br)cc1F)c1cc(S(=O)(=O)NC2CCCC2)ccc1F`: the half-maximal activity concentration (AC50) is, setting by setting: under setting [1], 35.5 µM [falling, partial curve, poor fit]; under setting [2], 35.5 µM [falling, partial curve, poor fit].
Turning to `CCOC(=O)C1=C(C)OC(N)=C(C#N)C1c1cc2cc(C)ccc2nc1N1CCCCC1` (stereo unspecified), the half-maximal activity concentration (AC50) under setting [2] is 35.5 µM [rising, single point].
Consider `Cc1ccc(NC(=O)CCNC(=O)c2ccco2)cc1F`, for which the AC50 runs as follows: under setting [1], 35.5 µM [falling, partial curve, poor fit]; under setting [2], 17.8 µM [falling, partial curve, poor fit].
As to `COc1cccc2cc(C(C)=O)oc12`, the AC50 under setting [2] was 0.01 µM [falling, full curve, poor fit].
Still for that read-out and setting: then `COC(=O)c1c(NC(=O)Cc2cccs2)sc2c1CCCC2`, with 1 µM [rising, full curve, poor fit].
Regarding `Cc1[nH]nc(-c2ccc(OCc3cnn(-c4ccccc4)c3)cc2O)c1Oc1ccccc1F`, the AC50 by setting is: under setting [1], 25.1 µM [falling, single point]; under setting [2], 22.4 µM [falling, single point].
Regarding `CC(C)OCCCNC(=O)Cc1ccc(F)cc1`, under setting [2], the AC50 is 0.02 µM [falling, full curve, poor fit].
`COc1ccccc1C(=O)N=Nc1c(O)[nH]c2ccc([N+](=O)[O-])cc12`: the half-maximal activity concentration (AC50) was 0.112 µM [rising, partial curve, poor fit] under setting [1] and 1.26 µM [rising, partial curve] under setting [2].
With `Clc1ccc(C[n+]2cc(-c3ccccc3)n3c2CCCCC3)c(Cl)c1`, the concentration at half-maximal activity (AC50) under setting [2] was 6.31 µM [rising, partial curve].
For the compound `Nc1ncc(Br)cc1S(=O)(=O)NCCC(=O)N1CCN(c2ccccn2)CC1`, the AC50 runs as follows: under setting [1], 35.5 µM [rising, single point]; under setting [2], 31.6 µM [rising, single point].
For `CCCN1C2=NCCN2c2cc(C)c(C)cc21`, the AC50 under setting [2] is 35.5 µM [rising, single point].
`COc1cccc(-n2ccnc2SCC(=O)Nc2cc(OC)ccc2OC)c1`: the half-maximal activity concentration (AC50) under setting [1] was 14.1 µM [rising, single point].
On to `O=C(Cc1cccs1)Nc1nc(-c2ccc(F)cc2F)cs1`, for which the AC50 under setting [2] was 31.6 µM [rising, single point].
On the same count and under the same terms, under `Cc1ccc(CNn2cnnc2SCc2ccc(F)cc2)cc1` stands 17.8 µM [rising, single point].
`Cc1nc2ncnn2c(N2CCCC(C(=O)Nc3ccc4c(c3)CCC4)C2)c1C` (stereo unspecified): the AC50 runs as follows: under setting [1], 22.4 µM [rising, partial curve, poor fit]; under setting [2], 12.6 µM [rising, partial curve].
In the case of `O=C(CCc1ccccc1)N(Cc1cccnc1)c1nc2c(F)cc(F)cc2s1`, under setting [2], the concentration at half-maximal activity (AC50) was 12.6 µM [falling, partial curve, poor fit].
For the compound `CCN(C(=O)CSc1ncn[nH]1)c1cccc2ccccc12`, the AC50 is 35.5 µM [rising, single point] under setting [1] and 31.6 µM [rising, single point] under setting [2].
On to `COc1ccc(-n2nnnc2-c2cccc(OC)c2)cc1`, for which the AC50 under setting [2] was 3.16 µM [rising, full curve].
With `O=C(O)CC/C(=N/Nc1ncc(C(F)(F)F)cc1Cl)C(=O)O`, the half-maximal activity concentration (AC50) under setting [1] was 0.178 µM [rising, full curve, poor fit].
Consider `CCOc1ccc2nc(NC(=O)CSc3nc4cccnc4n3C)sc2c1`, for which the AC50 under setting [2] was 35.5 µM [falling, single point].
For `O=C(c1ccccc1)C1CN(Cc2ccccc2)CCC1(O)c1ccccc1` (stereo unspecified), the AC50 under setting [1] was 2 µM [falling, full curve] and the AC50 under setting [2] is 11.2 µM [falling, partial curve].
Regarding `Cc1ccc(/C=N/NC(=O)c2n[nH]c3c2CCCC3)cc1`, the AC50 reads like this: under setting [1], 0.631 µM [falling, full curve]; under setting [2], 0.631 µM [falling, full curve].
For the compound `O=C(N/N=C/C=C\c1ccccc1[N+](=O)[O-])c1cc(-c2ccccc2)nc2ccccc12`, the concentration at half-maximal activity (AC50) under setting [2] was 17.8 µM [rising, partial curve].
In the case of `O=C(NCCc1csc(-c2ccc(Cl)cc2)n1)c1ccco1`, the half-maximal activity concentration (AC50) reads like this: under setting [1], 2 µM [falling, full curve, poor fit]; under setting [2], 1.78 µM [falling, full curve, poor fit].
Turning to `CCN(C(=O)c1cnc(N2CCN(c3ncccn3)CC2)c2ccccc12)c1cccc(Cl)c1`, the half-maximal activity concentration (AC50) runs as follows: under setting [1], 20 µM [falling, partial curve, poor fit]; under setting [2], 22.4 µM [falling, partial curve].
